Values from PubChem BioAssay AID652243 (Drosophila RNAi Screening Center, 2013)

- Assay: 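Fly genes required for human androgen receptor driven transcription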 (primary screen)
- Cell system: Drosophila S2R+ cells
- Reagents: long dsRNA against Drosophila genes
- Timing: 72 h (48 h, then 24 h hormone)
- Challenge: synthetic androgen R1881 at 10 nM for 24 h
- Measurement: 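Per-well raw luminescence of the androgen-driven firefly reporter and of the Renilla control, two replicates each, without normalisation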
- Reading the numbers: firefly reporter light: higher = more light from androgen-responsive reporter; Renilla control light: higher = more constitutive control signal (cell number, transfection)
- Rule for the call: 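Across duplicate plates, a knock-down whose log firefly/Renilla ratio shifted a set fold down or up from the GFP/LacZ control mean was a hit; the downward cut appears as both 1.5 and 3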
- Calls: active = hit: reporter lowered or raised; inactive = no hit
The deposit covers about 24,000 reagents; this is an unselected part of those that have a named target and a result. Of all reagents, 246 (1%) are marked active. 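Plates not normalised; calls are printed but the firefly/Renilla ratio behind them is not deposited; fold cut for lowering reported inconsistently.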 The raw values are shown without normalisation. Reagent sequences are not shown. Not stated in the record: the amount of reagent.

After knock-down of GalT1 (GeneID 36279) [DRSC22238] the results were firefly reporter light, replicate 1 = 9.00e5; firefly reporter light, replicate 2 = 7.31e5; Renilla control light, replicate 1 = 1.98e6; Renilla control light, replicate 2 = 1.39e6; inactive.
With knock-down of hmw (GeneID 42207) [DRSC16277] the results were firefly reporter light, replicate 1 = 1.03e5; firefly reporter light, replicate 2 = 1.08e5; Renilla control light, replicate 1 = 9.19e5; Renilla control light, replicate 2 = 1.23e6; inactive.
For Ptip (GeneID 39552) [DRSC10660], the entry reads firefly reporter light, replicate 1 = 2.28e5; firefly reporter light, replicate 2 = 2.47e5; Renilla control light, replicate 1 = 2.08e6; Renilla control light, replicate 2 = 1.66e6; inactive.
Knock-down of Ptip (GeneID 39552) [DRSC11048] gave: firefly reporter light, replicate 1 = 62296; firefly reporter light, replicate 2 = 29438; Renilla control light, replicate 1 = 5.97e5; Renilla control light, replicate 2 = 5.22e5; inactive.
With knock-down of CG5757 (GeneID 37062) [DRSC06951], the record shows firefly reporter light, replicate 1 = 1.00e6; firefly reporter light, replicate 2 = 7.91e5; Renilla control light, replicate 1 = 2.14e6; Renilla control light, replicate 2 = 1.70e6; inactive.
Depletion of CG5757 (GeneID 37062) [DRSC36870] resulted in: inactive.
Against GPHR (GeneID 36682) [DRSC07075], the values are firefly reporter light, replicate 1 = 80795; firefly reporter light, replicate 2 = 72687; Renilla control light, replicate 1 = 1.44e6; Renilla control light, replicate 2 = 1.44e6; inactive.
Against beat-Vc (GeneID 41575) [DRSC12927], the values are firefly reporter light, replicate 1 = 2.12e5; firefly reporter light, replicate 2 = 1.49e5; Renilla control light, replicate 1 = 3.59e5; Renilla control light, replicate 2 = 4.68e5; inactive.
beat-Vc (GeneID 41575) [DRSC14849] showed firefly reporter light, replicate 1 = 66772; firefly reporter light, replicate 2 = 82970; Renilla control light, replicate 1 = 9.47e5; Renilla control light, replicate 2 = 1.62e6; inactive.
Against Usp20-33 (GeneID 36580) [DRSC07196] the deposit lists firefly reporter light, replicate 1 = 1.14e6; firefly reporter light, replicate 2 = 1.01e6; Renilla control light, replicate 1 = 2.75e6; Renilla control light, replicate 2 = 2.16e6; inactive.
For CG14125 (GeneID 39359) [DRSC10129] the deposit lists firefly reporter light, replicate 1 = 1.65e5; firefly reporter light, replicate 2 = 1.39e5; Renilla control light, replicate 1 = 1.98e6; Renilla control light, replicate 2 = 1.65e6; inactive.
For dah (GeneID 32459) [DRSC20320], the entry reads firefly reporter light, replicate 1 = 86464; firefly reporter light, replicate 2 = 96575; Renilla control light, replicate 1 = 8.24e5; Renilla control light, replicate 2 = 7.59e5; inactive.
CG4286 (GeneID 37416) [DRSC04459] gave firefly reporter light, replicate 1 = 1.94e5; firefly reporter light, replicate 2 = 3.88e5; Renilla control light, replicate 1 = 5.85e5; Renilla control light, replicate 2 = 6.68e5; inactive.
CG4286 (GeneID 37416) [DRSC24458] gave firefly reporter light, replicate 1 = 8.06e5; firefly reporter light, replicate 2 = 6.88e5; Renilla control light, replicate 1 = 1.01e6; Renilla control light, replicate 2 = 9.01e5; inactive.
For gish (GeneID 49701) [DRSC16154] the deposit lists firefly reporter light, replicate 1 = 46928; firefly reporter light, replicate 2 = 53332; Renilla control light, replicate 1 = 5.24e5; Renilla control light, replicate 2 = 6.60e5; inactive.
Against gish (GeneID 49701) [DRSC36673], the values are inactive.
For Map205 (GeneID 43765) [DRSC16732], the entry reads firefly reporter light, replicate 1 = 46934; firefly reporter light, replicate 2 = 36712; Renilla control light, replicate 1 = 4.29e5; Renilla control light, replicate 2 = 3.18e5; inactive.
Depletion of Map205 (GeneID 43765) [DRSC27322] came out at: firefly reporter light, replicate 1 = 5.31e5; firefly reporter light, replicate 2 = 5.21e5; Renilla control light, replicate 1 = 7.42e5; Renilla control light, replicate 2 = 8.09e5; inactive.
lectin-37Da (GeneID 3346222) [DRSC03278] scored firefly reporter light, replicate 1 = 3.33e5; firefly reporter light, replicate 2 = 3.41e5; Renilla control light, replicate 1 = 3.20e6; Renilla control light, replicate 2 = 3.23e6; inactive.
For lectin-37Da (GeneID 3346222) [DRSC22729] the deposit lists firefly reporter light, replicate 1 = 9.28e5; firefly reporter light, replicate 2 = 7.68e5; Renilla control light, replicate 1 = 1.23e6; Renilla control light, replicate 2 = 9.21e5; inactive.
After knock-down of Wnt6 (GeneID 34010) [DRSC02795] the results were firefly reporter light, replicate 1 = 2.60e5; firefly reporter light, replicate 2 = 1.89e5; Renilla control light, replicate 1 = 2.66e6; Renilla control light, replicate 2 = 2.52e6; inactive.
Wnt6 (GeneID 34010) [DRSC26973] gave firefly reporter light, replicate 1 = 5.17e5; firefly reporter light, replicate 2 = 2.66e5; Renilla control light, replicate 1 = 9.28e5; Renilla control light, replicate 2 = 3.25e5; inactive.
After knock-down of CG9632 (GeneID 41926) [DRSC16528] the results were firefly reporter light, replicate 1 = 1.53e5; firefly reporter light, replicate 2 = 1.01e5; Renilla control light, replicate 1 = 2.34e6; Renilla control light, replicate 2 = 1.79e6; inactive.
Mlc1 (GeneID 43323) [DRSC16740] gave firefly reporter light, replicate 1 = 1.96e5; firefly reporter light, replicate 2 = 1.73e5; Renilla control light, replicate 1 = 1.88e6; Renilla control light, replicate 2 = 1.78e6; inactive.
Mlc1 (GeneID 43323) [DRSC27232] gave firefly reporter light, replicate 1 = 2.05e5; firefly reporter light, replicate 2 = 2.67e5; Renilla control light, replicate 1 = 4.20e5; Renilla control light, replicate 2 = 4.73e5; inactive.
With knock-down of CG2336 (GeneID 40804) [DRSC12581] the results were firefly reporter light, replicate 1 = 47632; firefly reporter light, replicate 2 = 80658; Renilla control light, replicate 1 = 1.16e6; Renilla control light, replicate 2 = 1.25e6; inactive.
For Esp (GeneID 42962) [DRSC16664] the deposit lists firefly reporter light, replicate 1 = 2.34e5; firefly reporter light, replicate 2 = 2.95e5; Renilla control light, replicate 1 = 2.32e6; Renilla control light, replicate 2 = 2.26e6; inactive.
